Reference: PubChem BioAssay AID720526 (National Center for Advancing Translational Sciences (NCATS), 2013)
This list was built around the results that the source calls inconclusive (neither active nor inactive); the mix of calls is not that of the screen. Potencies of inconclusive entries are doubtful fits and often do not repeat. The source made the active and inactive calls. The call rests on the fitted dose curve; in most records, active means well fitted activation curve with a large enough effect; inconclusive means small, poorly fitted or top-dose-only effect; inactive means no such curve, though single readings can be large or run the other way.

assay: qHTS Assay for NPC1 Promoter Activators: Hit Validation Using Renila Luciferase Read-Out for NPC1; details: Huh7 NPC1 promoter-luciferase reporter, luminescence, 24 h; series mostly up to 76.9 µM; activity change, positive = activation: at the top concentration; on activity change, positive = activation: % of control where 0% means no effect
From the text: Niemann Pick Type C (NPC) is a rare neurodegenerative lipidosis that is characterized by lipid storage in the endosomal/lysosomal system. Treatment modalities for this devastating disease are currently non-existent due to the severe obstacles associated with accessing the central nervous system with proteins or genes. The majority of mutations causing NPC disease are missense mutations that are distributed throughout the length of the NPC1 protein, with the most prevalent being the I1061T allele. Although NPC1 mutant proteins may be functional, they are typically trapped in the ER due to misfolding. […] We have developed and optimized a cell based renilla luciferase reporter assay in 1536 well format for the identification of up-regulators of the mutant Rab9 promoter. This assay presents data on the validation of hits from the primary screen, which used a firefly luciferase read-out. NIH Chemical Genomics Center [NCGC] NIH Molecular Libraries Probe Production centers Network [MLPCN] MLPCN Grant: MH089375 Assay Submitter (PI): Yiannis A. Ioannou
Huh7 cells stably expressing NPC promoter-luciferase will be seeded at 1,500 cells/well in 5 uL in 1,536-well white opaque plates with 23 nL/well of compound in DMSO solution. The assay plates will be incubated at 37 deg C for 24 hours, after which 3 uL/well BriteLite plus luciferase detection reagent mixture (Perkin Elmer) will be added. Luminescence signal will be measured in a ViewLux plate reader (Perkin Elmer) after a 10 minute incubation at the room temperature.
Potency means the concentration at half of the fitted maximal effect.

SMILES | Potency | activity change, positive = activation
CCC1=[N+](CC(=O)c2ccc(C)cc2)CCn2cccc21 | inconclusive: 8.23 µM [activator, partial curve] | 
O=C(CCCC(=O)N(CC(=O)NC1CCCCC1)c1cccc(F)c1)Nc1ccccn1 | inconclusive: 32.8 µM [activator, partial curve, poor fit] | 
O=C(CCCN1C(=O)C(c2ccccc2)Oc2cccnc21)Nc1ccccc1Cl (stereo unspecified) |  | inactive: 15%
FC(F)(F)c1ccc(Nc2nnnc3ccccc23)cc1 |  | inactive: -69%
CCOc1ccc(S(=O)(=O)NCc2ccccc2)cc1C(N)=O | inconclusive: 4.63 µM [activator, full curve, poor fit] | 
COc1ccc(C2(CNC(=O)/C=C/c3ccco3)CCCC2)cc1OC | inconclusive: 9.23 µM [activator, partial curve] | 
O=C(NNC(=O)C1COc2ccccc2O1)c1ccccc1O (stereo unspecified) |  | inactive: -71%
COc1ccc(NC(=O)c2cc3ccccc3o/c2=N\NS(=O)(=O)c2ccc(C)cc2)cc1 | inconclusive: 1.64 µM [activator, full curve] | 
COc1ccc(C)cc1N(C(=O)CNC(=O)c1ccco1)C(C(=O)NC1CCCC1)c1cccnc1 (stereo unspecified) | inconclusive: 18.4 µM [activator, partial curve, poor fit] | 
Cc1nnc2n(c1=O)N=C(c1ccc(Cl)cc1)CS2 |  | inactive: 11.5%
COc1ccc(S(=O)(=O)N2CCCC(C(=O)NCc3ccncc3)C2)cc1Cl (stereo unspecified) | inconclusive: 20.7 µM [activator, partial curve] | 
Cc1ccc(NC(=O)NC(=O)c2ccccc2)cc1F |  | inactive: -4.34%
COc1ccc(OC)c(S(=O)(=O)N2CCN3CCCC3C2)c1 (stereo unspecified) | active: 32.8 µM | 
O=C(O)C1=CC[C@@H](c2ccc(Cl)cc2)N(S(=O)(=O)c2ccc(Cl)cc2)[C@H]1c1ccccc1 | active: 14.6 µM | 
CCc1cc2c(N=Nc3c(O)[nH]c4ccccc34)ncnc2s1 | inconclusive: 0.582 µM [activator, full curve] | 
O=C(Nc1ccc(-c2nc3cccnc3s2)cc1)c1ccc(Cl)nc1 |  | inactive: 1.87%
CC(C)C1(CCNC(=O)c2cccs2)CCOC(C)(C)C1 (stereo unspecified) | inconclusive: 26 µM [activator, partial curve, poor fit] | 
CC1CC(C)CN(CC(=O)N2CCOCC2)C1 (stereo unspecified) |  | inactive: 9.94%

Two of the compounds above, in markdown:

| SMILES | Potency | activity change, positive = activation |
| --- | --- | --- |
| O=C(CCCC(=O)N(CC(=O)NC1CCCCC1)c1cccc(F)c1)Nc1ccccn1 | inconclusive: 32.8 µM [activator, partial curve, poor fit] |  |
| O=C(CCCN1C(=O)C(c2ccccc2)Oc2cccnc21)Nc1ccccc1Cl (stereo unspecified) |  | inactive: 15% |

(more compounds)

SMILES | Potency | activity change, positive = activation
COCCn1c(SCc2ccc(C(=O)OC)o2)nc2cc(Cl)ccc2c1=O | inconclusive: 32.8 µM [activator, single point] | 
CCOC(=O)c1ccccc1NC(=O)CSc1nnc(Cc2cccn2C)n1-c1ccc(F)cc1 | active: 46.3 µM | 
Cc1ccc(C(=O)Nc2nnc(S(=O)(=O)N3CCOCC3)s2)cc1 |  | inactive: 4.97%
O=C(NCC1CCCO1)C(c1ccc(F)cc1)N(Cc1ccc2c(c1)OCO2)C(=O)c1ccc(CN2CCOCC2)o1 (stereo unspecified) | inconclusive: 36.8 µM [activator, partial curve] | 
O=C(c1cc2cc(Br)ccc2[nH]1)N1CCc2ccccc21 | inconclusive: 9.23 µM [activator, partial curve] | 
Cc1ccc(C(=O)NCc2ccc3c(c2)OCO3)cc1C | inconclusive: 29.2 µM [activator, partial curve] | 
O=C(CSc1nccn1Cc1ccco1)Nc1ccccc1F | active: 36.8 µM | 
COc1ccc(-c2csc(N(CCCN(C)C)C(=O)c3ccccc3C)n2)cc1 | inconclusive: 8.23 µM [activator, partial curve] | 
CCC(=O)N1c2ccccc2NC2=C(C(=O)CCC2)C1c1ccc(N(C)C)cc1 (stereo unspecified) | inconclusive: 18.4 µM [activator, single point] | 
CCCNC(=O)C1CCN(S(=O)(=O)c2ccc3[nH]c(=O)ccc3c2)CC1 |  | inactive: 14.4%
Cc1ccc(S(=O)(=O)/N=C(/Nc2ccccn2)c2ccc(Cl)cc2)cc1 | active: 11.6 µM | 
CCCOC(=O)Cn1cnc2scc(-c3ccc(OC)cc3)c2c1=O | inconclusive: 32.8 µM [activator, partial curve, poor fit] | 
CCCC(C)NC(=O)c1ccc(OCc2ccc(Cl)cc2)c(OC)c1 (stereo unspecified) |  | inactive: -13.6%
CCC(C)(C)NC(=O)C(c1ccc(OC)cc1)N(Cc1cccs1)C(=O)CCC(=O)Nc1cc(C)on1 (stereo unspecified) | inconclusive: 16.4 µM [activator, full curve, poor fit] | 
O=C(CCc1cccc(Cl)c1)NC1CCCN(Cc2ccccc2F)C1 (stereo unspecified) |  | inactive: 8.73%
CN(C)/C=N/c1c(C#N)cnn1-c1nc2ccccc2s1 |  | inactive: -0.131%
COc1cccc(NC(=O)CN2C(=O)CSc3ccc(S(=O)(=O)N4CCC(C)CC4)cc32)c1 |  | inactive: -64%
CCCCn1c(CCNC(=O)c2cccs2)nc2ccccc21 | inconclusive: 23.2 µM [activator, partial curve] | 
